Experimental findings from PMC6556580 (The Journal of Biological Chemistry, 2019) are described below.

Results are given in words; binding and its absence hold for the method and conditions named. Some results given as binding are weak or reduced against the parent protein; the word gives no strength.

The target of one test is SYCE3 W41A (human) (UniProt A1L190). As to the kind of experiment: SEC-MALS; samples at 0.5–20 mg/ml in 20 mM Tris pH 8.0, 150 mM KCl, 2 mM DTT; Superdex 200 Increase 10/300 GL; concentration series and enriched species; self-association: dimer and higher oligomers of dimers; both purified.
The target in a further test is SYCE3 Y44A (human) (UniProt A1L190). The test is described as above.
Test [1] deals with Mouse SYCE3 (crystal structure, rebuilt and re-refined) (mouse) (UniProt B5KM66). As to the kind of experiment: crystal structure; mouse SYCE3, rebuilt and re-refined against the deposited data of PDB 4R3Q to 1.90 Å; deposited as 6H86; both purified.

B1: SYCE3 W41A (protein, UniProt A1L190 1-88)
chain: MDDADPEERNYDNMLKMLSDLNKDLEKLLEEMEKISVQATAMAYDMVVMRTNPTLAESMRRLEDAFVNCKEEMEKNWQELLHETKQRL
B1: the binding entry with SYCE3 W41A (human) is recorded as “binds”.

B2: SYCE3 Y44A (protein, UniProt A1L190 1-88)
chain: MDDADPEERNYDNMLKMLSDLNKDLEKLLEEMEKISVQATWMAADMVVMRTNPTLAESMRRLEDAFVNCKEEMEKNWQELLHETKQRL
As for B2, the binding entry in the test with SYCE3 Y44A (human) is recorded as “binds”.

B3: Mouse SYCE3 (crystal structure, rebuilt and re-refined) (protein, UniProt B5KM66 1-88)
chain: MADSDPGERSYDNMLKMLSDLNKDLEKLLEEMEKISVQATWMAYDMVVMRTNPTLAESMRRLEDAFLNCKEEMEKNWQELLTETKRKQ
Turning to B3, the binding result in test [1] is “binds”.
